# Several values for one entry are separate records, joined by “and”; a condition that tells them apart may be missing. Equal values may be shown once. Where a name gives a salt, the structure may show the parent alone. Some of the results follow. Repeats in this data set agree poorly, so a single value says little.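 HEK293T cells were given each compound shortly before transfection with a reporter in which red mCherry is followed by the SARS-CoV-2 frameshift element and then GFP in the −1 frame, so GFP appears only after frameshifting.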
# How the values were obtained:
# [1] = system: SARS-CoV-2 -1 PRF reporter mCherry-FSE-GFP(-1); test: mCherry (red) intensity as percent of control; higher = higher upstream reporter expression; conditions: 10 µM; 24 h; HEK293T
# [2] = system: SARS-CoV-2 -1 PRF reporter mCherry-FSE-GFP(-1); test: percent effect, decrease of GFP/mCherry ratio (-1 PRF reporter) relative to controls; higher = stronger frameshift inhibition; conditions: 10 µM; 24 h; HEK293T
structure (smiles),measurement,setting,value
Clc1ccc(Cn2c(CN3CCCC3)nc3ccccc32)cc1,mCherry,[1],103%
same,percent effect,[2],-3.98%
N[C@H](Cc1cnc[nH]1)C(=O)O,mCherry,[1],89.8%
same,percent effect,[2],-5.2%
CCCc1cc(=O)[nH]c(=S)[nH]1 [propylthiouracil],mCherry,[1],86.3%
same,percent effect,[2],0.338%
C1COC(NC(C2CC2)C2CC2)=N1 [Rilmenidine phosphate],mCherry,[1],94.1%
same,percent effect,[2],-1.67%
CCCNS(=O)(=O)Nc1ncnc(OCCOc2ncc(Br)cn2)c1-c1ccc(Br)cc1,mCherry,[1],89.9%
same,percent effect,[2],-0.953%
O=C(O)C(Cc1cc(I)c(O)c(I)c1)c1ccccc1 (configuration not stated) [pheniodol],mCherry,[1],85.9%
same,percent effect,[2],-1.95%
CCCCCc1ccc(C)cc1O [amylmetacresol],mCherry,[1],117%
same,percent effect,[2],-9.49%
CC(=O)Nc1ccc(O)cc1 [paracetamol],mCherry,[1],99.9%
same,percent effect,[2],-8.91%
O=C(O)CCNC(=O)c1ccc(/N=N/c2ccc(O)c(C(=O)O)c2)cc1,mCherry,[1],85.5%
same,percent effect,[2],-1.3%
O=C([O-])CN1CCN(CC(=O)[O-])CCN([C@H](CO)[C@H](O)CO)CCN(CC(=O)[O-])CC1.[Gd+3] (racemic) [gadobutrol],mCherry,[1],69.8%
same,percent effect,[2],-1.96%
N[C@@H](Cc1c[nH]cn1)C(=O)O [L-Histidine],mCherry,[1],89.2%
same,percent effect,[2],-1.54%
O=C(O)[C@@H]1CCCN1 [proline],mCherry,[1],83.4%
same,percent effect,[2],-5.23%
CN(C)CC/C=C1/c2ccccc2Sc2ccc(Cl)cc21 [chlorprothixene],mCherry,[1],133%
same,percent effect,[2],-2.14%
CC(C)(C)NC(=O)[C@@H]1C[C@@H]2CCCC[C@@H]2CN1C[C@@H](O)[C@H](Cc1ccccc1)NC(=O)[C@H](CC(N)=O)NC(=O)c1ccc2ccccc2n1 [Invirase],mCherry,[1],111%
same,percent effect,[2],-5.18%
CC1=C(C/C=C(\C)CCC[C@H](C)CCC[C@H](C)CCCC(C)C)C(=O)c2ccccc2C1=O [Mephyton],mCherry,[1],100%
same,percent effect,[2],-2.7%
CCCOc1ccccc1-c1nc2[nH]nnc2c(=O)[nH]1 [zaprinast],mCherry,[1],76.7%
same,percent effect,[2],-10.9%
O=P(O)(O)C(O)(Cn1ccnc1)P(=O)(O)O [zoledronic acid],mCherry,[1],101%
same,percent effect,[2],-9.76%
C1N2CN3CN1CN(C2)C3 [methenamine],mCherry,[1],98%
same,percent effect,[2],-4.42%
C[C@@H](O)[C@H](N)C(=O)O [threonine],mCherry,[1],105%
same,percent effect,[2],-4.01%
CC(C)(Oc1ccc(Cl)cc1)C(=O)OCc1cccnc1 [nicofibrate],mCherry,[1],103%
same,percent effect,[2],-2.28%
O=C(O)Cc1cscc1Nc1c(Cl)cccc1Cl [eltenac],mCherry,[1],86%
same,percent effect,[2],-2.67%
FC(F)(F)C(Cl)Br (configuration not stated) [halothane],mCherry,[1],93.7%
same,percent effect,[2],-2.18%
CN[C@H]1CC[C@@H](c2ccc(Cl)c(Cl)c2)c2ccccc21 [sertraline],mCherry,[1],105%
same,percent effect,[2],-4.91%
CC[N+](C)(CC)CCOC(=O)C(O)(c1ccccc1)C1CCCCC1 (configuration not stated) [oxyphenonium bromide],mCherry,[1],76.7%
same,percent effect,[2],-3.09%
Oc1c(Cl)cc(Cl)c2cccnc12,mCherry,[1],130%
same,percent effect,[2],-0.443%
COc1ccc2c(c1)N(C[C@H](C)CN(C)C)c1ccccc1S2 [Levoprome],mCherry,[1],135%
same,percent effect,[2],-2.63%
CC(C)[C@H](N)C(=O)OCCOCn1cnc2c(=O)nc(N)[nH]c21 [valaciclovir],mCherry,[1],84.9%
same,percent effect,[2],-0.0831%
CO[C@@H]1[C@@H](OC(N)=O)[C@@H](O)[C@H](Oc2ccc3c(O)c(NC(=O)c4ccc(O)c(CC=C(C)C)c4)c(=O)oc3c2C)OC1(C)C,mCherry,[1],86.9%
same,percent effect,[2],-0.605%
C[C@]12CCC(=O)C=C1CC[C@@H]1[C@@H]2[C@@H](O)C[C@@]2(C)[C@H]1CC[C@]2(O)C(=O)COP(=O)(O)O,mCherry,[1],98.3%
same,percent effect,[2],-0.453%
CN(C)C(=O)N[C@H]1CC[C@H](CCN2CCN(c3cccc(Cl)c3Cl)CC2)CC1 [Cariprazine],mCherry,[1],105%
same,percent effect,[2],0.888%
CCOc1ccc(Cc2cc([C@@H]3O[C@H](CO)[C@@H](O)[C@H](O)[C@H]3O)ccc2Cl)cc1 [Dapagliflozin],mCherry,[1],124%
same,percent effect,[2],4.12%
COc1ccc(/C=C/C(=O)c2ccc(OC)cc2OC)cc1 [metochalcone],mCherry,[1],93.2%
same,percent effect,[2],-5.38%
CCOc1ccc(C(=O)OCCN(CC)CC)cc1 [parethoxycaine],mCherry,[1],92%
same,percent effect,[2],-3.5%
CCc1cc(C(N)=S)ccn1 [ethionamide],mCherry,[1],124%
same,percent effect,[2],0.206%
CC[N+](CC)(CC)CCOC(=O)c1cc(OC)c(OC)c(OC)c1 [troxonium tosilate],mCherry,[1],74.7%
same,percent effect,[2],-9.2%
NC(=O)N/N=C/c1ccc([N+](=O)[O-])o1 [Nitrofural],mCherry,[1],91.1%
same,percent effect,[2],-0.37%
C#CCN[C@@H]1CCc2ccccc21 [rasagiline],mCherry,[1],101%
same,percent effect,[2],-1.79%
CC[C@H]1OC(=O)[C@H](C)[C@@H](O[C@H]2C[C@@](C)(OC)[C@@H](O)[C@H](C)O2)[C@H](C)[C@@H](O[C@@H]2O[C@H](C)C[C@H](N(C)C)[C@H]2O)[C@](C)(O)C[C@@H](C)/C(=N\OCOCCOC)[C@H](C)[C@@H](O)[C@]1(C)O [roxithromycin],mCherry,[1],93.6%
same,percent effect,[2],-2.13%
COc1ccc(-n2nc(C(N)=O)c3c2C(=O)N(c2ccc(N4CCCCC4=O)cc2)CC3)cc1 [apixaban],mCherry,[1],110%
same,percent effect,[2],5.71%
COc1ccc2c(O[C@@H]3C[C@H]4C(=O)N[C@]5(C(=O)NS(=O)(=O)C6(C)CC6)C[C@H]5/C=C\CCCCC[C@H](NC(=O)c5ccn(C)n5)C(=O)N4C3)cc(OC(C)C)nc2c1C,mCherry,[1],47.4%
same,percent effect,[2],-0.139%
CCC(=O)OCC(=O)[C@@]1(OC(=O)CC)[C@@H](C)C[C@H]2[C@@H]3CCC4=CC(=O)C=C[C@]4(C)[C@@]3(Cl)[C@@H](O)C[C@@]21C [Vanceril],mCherry,[1],107%
same,percent effect,[2],-2.12%
CC(C)(Sc1cc(C(C)(C)C)c(O)c(C(C)(C)C)c1)Sc1cc(C(C)(C)C)c(O)c(C(C)(C)C)c1 [probucol],mCherry,[1],79.5%
same,percent effect,[2],-4.15%
CC(=O)O[C@H]1C[C@@]2(C)[C@@H](C[C@@H](O)[C@H]3[C@@]4(C)CC[C@@H](O)[C@@H](C)[C@@H]4CC[C@@]32C)/C1=C(\CCC=C(C)C)C(=O)O [fusidic acid],mCherry,[1],90.1%
same,percent effect,[2],-0.934%
CCC(C/C=C/c1ccccc1)(c1ccccc1)N(C)CC1CC1 (configuration not stated) [igmesine],mCherry,[1],96.6%
same,percent effect,[2],0.744%
NNC(=O)c1ccncc1.Nc1ccc(C(=O)O)c(O)c1 [pasiniazid],mCherry,[1],85.9%
same,percent effect,[2],-2.66%
COC(=O)Nc1nc2cc(C(=O)c3ccccc3)ccc2[nH]1 [Mebendazol],mCherry,[1],98.9%
same,percent effect,[2],-1.59%
CN(CCCN1c2ccccc2CCc2ccccc21)CC(=O)c1ccc(Cl)cc1 [lofepramine],mCherry,[1],116%
same,percent effect,[2],-4.85%
CCOc1ccc2nc(S(N)(=O)=O)sc2c1,mCherry,[1],84.8%
same,percent effect,[2],-1.09%
CC(C)CC(N)=O,mCherry,[1],100%
same,percent effect,[2],-0.342%
CC(=O)CC/C=C(\C)CC/C=C(\C)CC/C=C(\C)CCC=C(C)C [teprenone],mCherry,[1],108%
same,percent effect,[2],-0.112%
Cc1cccn2c(=O)c(-c3nnn[nH]3)cnc12 [pemirolast],mCherry,[1],124%
same,percent effect,[2],2.94%
CCOC(=O)CC(=O)N1CCSC1COc1ccccc1OC (configuration not stated) [moguisteine],mCherry,[1],124%
same,percent effect,[2],-1.38%
c1ccc(C(O[C@@H]2CCCN(CCc3ccc4c(c3)OCO4)C2)c2ccccc2)cc1 [zamifenacin],mCherry,[1],102%
same,percent effect,[2],-0.543%
CC(C(=O)O)c1ccc2c(c1)CC(=O)c1ccccc1S2 (configuration not stated) [zaltoprofen],mCherry,[1],107%
same,percent effect,[2],-0.598%
N[C@@H]1CONC1=O [cycloserine],mCherry,[1],101%
same,percent effect,[2],-8.67%
Nc1ccc(C(=O)Oc2ccccc2)c(O)c1 [fenamisal],mCherry,[1],104%
same,percent effect,[2],-5.82%
CCC(=O)c1ccc2c(c1)N(CCCN1CCN(CCO)CC1)c1ccccc1S2 [carfenazine],mCherry,[1],41.9%
same,percent effect,[2],-6.49%
COc1ccc(C(=O)c2ccccc2O)c(O)c1 [dioxybenzone],mCherry,[1],119%
same,percent effect,[2],-6.85%
Oc1ccc2c(c1)CC[C@H](c1ccccc1)[C@@H]2c1ccc(OCCN2CCCC2)cc1 [lasofoxifene],mCherry,[1],35%
same,percent effect,[2],-9.44%
CC(C)(C)c1cc(/C=C2\SC(=N)NC2=O)cc(C(C)(C)C)c1O [darbufelone],mCherry,[1],102%
same,percent effect,[2],0.0571%
CN1CCC[C@@H]1Cc1c[nH]c2ccc(CCS(=O)(=O)c3ccccc3)cc12,mCherry,[1],87.3%
same,percent effect,[2],-5.88%
C[C@@H](O)[C@H]1C(=O)N2C(C(=O)O)=C(SCCN=CN)C[C@H]12,mCherry,[1],95.4%
same,percent effect,[2],-5.04%
OCCN1CCN(CC/C=C2/c3ccccc3Sc3ccc(Cl)cc32)CC1 [Zuclopenthixol],mCherry,[1],105%
same,percent effect,[2],-3.76%
CC(C)CCCC(C)N (configuration not stated) [octodrine],mCherry,[1],88.1%
same,percent effect,[2],0.905%
NS(=O)(=O)c1cc(C2(O)NC(=O)c3ccccc32)ccc1Cl (configuration not stated) [chlortalidone],mCherry,[1],127%
same,percent effect,[2],-3.69%
C[C@]12C=CC(=O)C=C1CC[C@@H]1[C@@H]2[C@@H](O)C[C@@]2(C)[C@H]1CC[C@]2(O)C(=O)COP(=O)(O)O,mCherry,[1],136%
same,percent effect,[2],1.69%
N=C(N/N=C/c1ccc(Cl)cc1)N/N=C/c1ccc(Cl)cc1 [robenidine],mCherry,[1],63.1%
same,percent effect,[2],-4.84%
O=C1CN(/N=C/c2ccc(-c3ccc([N+](=O)[O-])cc3)o2)C(=O)N1,mCherry,[1],113%
same,percent effect,[2],-3.85%
COC(=O)C1=C(C)NC(C)=C(C(=O)OC)C1c1ccccc1[N+](=O)[O-] [nifedipine],mCherry,[1],75.7% and 92.5%
same,percent effect,[2],-2.2% and -5.26%
CN1CCN2c3ccccc3Cc3ccccc3C2C1 (configuration not stated) [Mianserin·HCl],mCherry,[1],330%
same,percent effect,[2],1.46%
C[C@]12CC[C@@H]3c4ccc(O)cc4C[C@@H](CCCCCCCCC[S+]([O-])CCCC(F)(F)C(F)(F)F)[C@H]3[C@@H]1CC[C@@H]2O (some centres not stated),mCherry,[1],140%
same,percent effect,[2],3.02%
O=C(c1ccccc1)c1ccc2n1CCC2C(=O)O (configuration not stated),mCherry,[1],118%
same,percent effect,[2],2.52%
O=C(O)P(=O)(O)O [foscarnet sodium],mCherry,[1],106%
same,percent effect,[2],0.302%
NC(=O)c1cnccn1 [pyrazinamide],mCherry,[1],90.8%
same,percent effect,[2],-2.6%
CCOC(=O)Nc1nc2ccccc2[nH]1 [lobendazole],mCherry,[1],102%
same,percent effect,[2],0.837%
CCOC(=O)C1=C[C@]2(CC)CCCN3CCc4c(n1c1ccccc41)[C@@H]32,mCherry,[1],105%
same,percent effect,[2],-0.191%

# A section from the list above, for reference:
structure (smiles),measurement,setting,value
CCOc1ccc(C(=O)OCCN(CC)CC)cc1 [parethoxycaine],percent effect,[2],-3.5%
CCc1cc(C(N)=S)ccn1 [ethionamide],mCherry,[1],124%
same,percent effect,[2],0.206%
CC[N+](CC)(CC)CCOC(=O)c1cc(OC)c(OC)c(OC)c1 [troxonium tosilate],mCherry,[1],74.7%
